In PubChem BioAssay AID2685 (National Center for Advancing Translational Sciences (NCATS), 2010) one finds cell number change and AC50 data, which are given here for 59 molecules.

The assay is described as follows: qHTS Assay for Lipid Storage Modulators in Drosophila S3 Cells.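 As to cell number change: cells counted by Cell Tracker Red CMTPX staining in the red channel.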 The note with it: BODIPY lipid droplet fluorescence, 18-24 h; for cell number change: measured here: cell count max response, cells fed with added oleic acid. Put shortly: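 Laser-scanning cytometry quantifies lipid droplet accumulation (500–530 nm total intensity; droplet/cell object ratio) in oleic acid-fed (400 uM added) Drosophila S3 cells treated with a concentration series. 20 uM Triacsin C defined 100% inhibition.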
In general terms: qHTS replaces the single test concentration by a dilution series.

The mark [1] stands for this setting: measured here: lipid fluorescence (Fed channel) AC50, cells fed with added oleic acid.
Where [2] appears, read: measured here: cell number channel AC50, cells fed with added oleic acid.

This is one part of the list. Further columns of the screen follow, without active or inactive calls. Compounds called inactive in the main read-out are mostly missing here. Words in brackets tell the shape of the fitted curve; partial curves, single points and poor fits give uncertain potencies.

What is called AC50 is the concentration giving half of the maximal activity seen. In the case of `O=C(OCc1c(-c2ccccc2)ncc2ccccc12)c1ccc(Cl)cc1Cl`, the cell number change was 11.5%. For the same molecule, the AC50 under setting [1] is 16.4 µM [rising, partial curve, poor fit].
On to `COc1ccc(OC)c(NC(=O)C2CCN(S(=O)(=O)c3c(C)noc3C)CC2)c1`, for which the cell number change was -88.4%. For the same molecule, under setting [2], the AC50 was 0.366 µM [falling, full curve]. Further, the AC50 under setting [1] is 5.17 µM [falling, full curve].
Turning to `CN(C)c1ccccc1C(=O)N1CCC(n2nccc2NC(=O)C2CC2)CC1`, under setting [1], the AC50 was 0.58 µM [rising, single point].
Regarding `CC(C)CN(C(=O)CN1CCN(c2ccccc2F)CC1)c1c(N)n(CC(C)C)c(=O)[nH]c1=O`, the cell number change was -14%. The AC50 under setting [1] is 0.13 µM [falling, full curve].
On to `Clc1ccc(CSc2nnc(CN3CCOCC3)n2-c2ccccc2)cc1Cl`, for which, under setting [1], the AC50 was 29.1 µM [rising, single point].
As to `Cc1ccc(S(=O)(=O)NNC(=O)c2sc3nc(C)cc(C)c3c2-n2cccc2)cc1`, the cell number change is 34%. Moreover, the AC50 under setting [2] is 0.82 µM [rising, full curve, poor fit].
As for `CCn1cc(/C=C(\NC(=O)c2ccccc2Cl)C(=O)N2CCOCC2)c2ccccc21`, the cell number change is -17.5%. Besides, under setting [1], the AC50 is 23.1 µM [falling, single point].
Regarding `COC(=O)CN(c1nc(C)c(Br)c(OC)n1)S(=O)(=O)c1ccc(C)cc1`, the cell number change is -28.2%.
On to `C=CCn1c(=O)c2c(C)c(C)sc2n2c(Nc3ccc(OC)cc3)nnc12`, for which the cell number change turned out to be 8.05%. For the same molecule, the concentration at half-maximal activity (AC50) under setting [2] is 0.00461 µM [rising, full curve, poor fit]. Besides, the AC50 under setting [1] was 0.00461 µM [rising, full curve, poor fit].
For `COc1ccc(C(c2nnnn2C(C)C)N2CCN(C(=O)c3ccco3)CC2)cc1` (stereo not given), the AC50 under setting [1] was 0.0517 µM [falling, full curve].
With `Cc1nn(C)c(N)c1[N+](=O)[O-]`, the cell number change is 11.2%. Besides, the concentration at half-maximal activity (AC50) under setting [2] was 0.461 µM [falling, full curve]. Besides, the AC50 under setting [1] is 0.517 µM [falling, full curve].
Turning to `COC(=O)c1ccc(Sc2ccc(Cl)cc2)c(N)c1`, the cell number change is -20%.
As for `CCn1c(=O)c(C(=O)NNC(=O)c2cccc(Cl)c2)c(O)c2ccccc21`, the cell number change turned out to be 3.17%. Also, the AC50 under setting [2] is 0.13 µM [falling, full curve, poor fit].
For the molecule `Cc1nc(NCCc2ccc(S(N)(=O)=O)cc2)c2c3c(sc2n1)CCC3`, the cell number change worked out at 52.2%. Further, under setting [2], the AC50 was 4.61 µM [rising, partial curve]. Further, the AC50 under setting [1] is 1.3 µM [rising, partial curve].
Turning to `Cc1c(OCC(=O)NCc2ccccn2)ccc2c3c(c(=O)oc12)CCCC3`, the cell number change was -6.13%. Moreover, the concentration at half-maximal activity (AC50) under setting [1] is 6.51 µM [falling, single point].
With `Cc1ccc2c(C)c(C(=O)NCCN3CCCC(O)C3)oc2c1C` (stereo not given), the cell number change turned out to be 13.7%. Also, the AC50 under setting [1] was 3.66 µM [rising, single point].
For `CCCc1nc2ccc(NC(C)=O)cc2c(=O)n1Cc1ccccc1Cl`, the cell number change is -47.2%. Further, the AC50 under setting [2] is 29.1 µM [falling, single point].
For the molecule `O=C(NC1CCCC1)c1ccc(Br)c(S(=O)(=O)N2CCCCC2)c1`, the cell number change is -21.8%. The half-maximal activity concentration (AC50) under setting [1] was 29.1 µM [rising, single point].
Consider `COc1ccc(S(=O)(=O)N2CCN(C(=O)CNC(=O)c3ccc4c(c3)OCO4)CC2)cc1`, for which the cell number change came to 23%.
Regarding `CC(O)Cc1cn(CC(=O)N2CCNCC2)nn1` (stereo not given), the cell number change amounted to 5.52%. In addition, the concentration at half-maximal activity (AC50) under setting [1] was 0.0731 µM [falling, single point].
In the case of `CCOc1ncccc1C(=O)Nc1cccc(-c2nnc3n2CCCCC3)c1`, the AC50 by setting is: under setting [2], 6.51 µM [falling, single point]; under setting [1], 6.51 µM [falling, single point].
For `O=C(NC(NCc1ccccn1)(C(F)(F)F)C(F)(F)F)c1ccco1`, the cell number change amounted to 4.82%. In addition, the AC50 under setting [1] is 4.61 µM [falling, single point].
Consider `O=C(CN1C(=O)NC2(CCCCC2)C1=O)N1CCN(S(=O)(=O)c2cccc(F)c2)CC1`, for which the cell number change came to 5.38%. The AC50 under setting [1] was 29.1 µM [rising, single point].
Take `Cc1cccc2sc(NNC(=O)c3cc(-c4cccs4)nc4ccccc34)nc12`: the cell number change amounted to 0.43%. Also, the AC50 under setting [1] was 3.26 µM [rising, single point].
As for `O=C(NCC1CCCCC1)c1cccc(-c2ccc(O)cc2)c1`, the cell number change amounted to 5.46%. Besides, the AC50 under setting [1] was 0.146 µM [rising, full curve].
In the case of `COc1ccc(OCCCC(=O)OCC(=O)c2ccc3c(c2)NC(=O)CO3)cc1`, the cell number change is 1.47%. Also, the AC50 under setting [2] is 0.651 µM [falling, single point].
On to `Cc1noc(C)c1S(=O)(=O)NCc1cccc(Cl)c1`, for which the cell number change is -1.46%.
Still for that read-out and setting: for `Cc1ccccc1N(CC(=O)NC(C)(C)C)C(=O)c1ccc(-c2ccccc2)[nH]1` the value was 22.7%.
Regarding `CCc1ccc(NC(=O)CCn2c(=O)oc3ccccc32)cc1`, the cell number change worked out at 8.24%. The half-maximal activity concentration (AC50) under setting [1] was 2.59 µM [rising, partial curve, poor fit].
For `CCN(C(=O)COC(=O)c1[nH]c(=O)[nH]c(=O)c1N)c1ccccc1`, the cell number change was -16.5%. For the same molecule, under setting [1], the AC50 was 0.58 µM [falling, full curve].
For `CC(=O)NC(CC(=O)OCc1ccc([N+](=O)[O-])cc1)c1ccccc1` (stereo not given), the cell number change is 15.8%. For the same molecule, the AC50 under setting [1] was 0.58 µM [rising, single point].
As for `O=C(Nc1cccc(C(=O)O)c1)/C(=C\C=C\c1ccccc1)NC(=O)c1ccccc1`, the cell number change came to 17.3%. Further, the AC50 under setting [2] is 0.103 µM [falling, full curve, poor fit]. Also, the half-maximal activity concentration (AC50) under setting [1] is 3.66 µM [falling, partial curve, poor fit].
For the molecule `O=S(=O)(NCc1ccc2c(c1)OCO2)c1ccc2c(c1)oc1ccccc12`, the cell number change worked out at 0.119%. Also, the AC50 under setting [1] is 29.1 µM [rising, single point].
For the molecule `COc1ccc(S(=O)(=O)Nc2ccc3c(c2)OCCO3)cc1Cl`, the cell number change was -29.7%.
In the case of `Cc1cc(OC(C)C(=O)N/N=C/CC(C)c2ccccc2)ccc1Cl` (stereo not given), the cell number change is 16%. Under setting [2], the AC50 is 2.91 µM [rising, single point]. Moreover, the AC50 under setting [1] was 6.51 µM [rising, single point].
As to `COC(=O)CCCCC1SCC2NC(=O)NC21O` (stereo not given), the cell number change stood at 23%.
With `CCOCCn1c(=O)c2c(nc3n2CCCN3CCc2ccccc2)n(C)c1=O`, the cell number change worked out at 1.47%. Also, under setting [1], the half-maximal activity concentration (AC50) was 29.1 µM [falling, single point].
On to `CC(=O)Nc1ccc(S(=O)(=O)N2CCN(c3cc(C)nc4ncnn34)CC2)cc1`, for which the cell number change was -13.7%. For the same molecule, the half-maximal activity concentration (AC50) under setting [1] was 29.1 µM [falling, single point].
For `CCCc1cc(-c2n[nH]c(=S)n2CC)c2ccccc2n1`, the cell number change is 50.8%. Besides, the AC50 under setting [2] was 16.4 µM [rising, single point]. The AC50 under setting [1] is 29.1 µM [rising, single point].
As for `Cn1c(SCC(=O)Nc2ccc(Cl)cc2F)nnc1-c1ccco1`, the AC50 under setting [1] is 29.1 µM [falling, single point].
For `CCC(Oc1ccccc1)C(=O)Nc1ccccc1N1CCCC1` (stereo not given), the cell number change came out at 13.1%. Besides, the AC50 under setting [1] was 14.1 µM [rising, partial curve, poor fit].
As for `CC(=O)c1csc(CS(=O)(=O)c2ccccn2)n1`, the cell number change was found to be 13.7%. Also, the AC50 under setting [1] is 0.92 µM [falling, full curve].
On to `CCCCNC(=O)N1CCN(C(=O)C2CCCO2)CC1` (stereo not given), for which the cell number change is -38.1%. Moreover, under setting [2], the AC50 was 29.1 µM [falling, single point]. Further, under setting [1], the AC50 is 0.259 µM [falling, full curve, poor fit].
With `Cc1c(C(=O)NCC2CCCO2)oc2ccc(S(=O)(=O)N3CCCCC3)cc12` (stereo not given), the cell number change came out at 9.89%. Also, under setting [1], the half-maximal activity concentration (AC50) is 11.6 µM [rising, partial curve].
Regarding `O=C(Nc1cccc(S(=O)(=O)NC2=NCCCCC2)c1)c1cc(-c2ccc(Cl)cc2)nc2ccccc12`, the cell number change was 14.4%. For the same molecule, the AC50 under setting [1] was 2.91 µM [rising, single point].
`O=C(N[C@@H](Cc1ccccc1)C(=O)N1CCC2(CC1)NCCc1[nH]cnc12)c1cccc(F)c1`: under setting [1], the AC50 is 0.116 µM [falling, single point].
In the case of `Clc1ccc(Sc2ccccn2)cc1`, the cell number change is -35.8%. Also, the AC50 under setting [2] is 25.9 µM [falling, single point].
`CCN1C(=O)[C@H]2[C@@H](c3ccc(-c4ccc(OC)cc4)cc3)N[C@@](Cc3ccccc3)(C(=O)OC)[C@H]2C1=O`: the cell number change is -22.4%. In addition, under setting [2], the AC50 is 6.51 µM [falling, single point].
With `COc1ccc(NC(=S)NC(C)c2ccncc2)cc1OC` (stereo not given), the cell number change was 14.3%. For the same molecule, the AC50 under setting [1] is 20 µM [rising, single point].
For the molecule `Cc1ccc(-c2nc3ccccc3o2)cc1NC(=O)Cc1cccs1`, the AC50 under setting [1] was 6.51 µM [falling, single point].
As to `CCOc1ncccc1C(=O)OCC(=O)N1c2ccccc2CC1C` (stereo not given), the cell number change was -1.1%. Moreover, the AC50 under setting [1] is 5.17 µM [rising, partial curve].
Regarding `O=C(CN1C(=O)c2cccc3cccc1c23)N1CCN(c2cccc(Cl)c2)CC1`, the cell number change was -14.4%.
As for `O=S(=O)(c1ccc(F)cc1)N1CN(Cc2ccco2)c2nc3ccccc3nc21`, the cell number change turned out to be 108%. Also, under setting [2], the AC50 was 20.6 µM [rising, single point]. Further, the AC50 under setting [1] is 1.84 µM [falling, partial curve].
On to `CCCNc1c(NC(C)=O)c(=O)oc2ccccc12`, for which the cell number change worked out at 37.4%. The AC50 under setting [2] was 4.61 µM [rising, single point]. Also, the AC50 under setting [1] is 4.61 µM [rising, full curve].
For `Cc1c(O)nc(SCC(=O)Nc2cccc(C(F)(F)F)c2)n(-c2ccccc2)c1=O`, the cell number change is 2.31%. In addition, under setting [1], the AC50 was 0.184 µM [falling, full curve, poor fit].
Regarding `Cc1ccc(-c2nn(-c3ccccc3)cc2/C=C/C(=O)Nc2nccs2)cc1`, the cell number change was -28.1%. In addition, the AC50 under setting [1] is 23.1 µM [falling, single point].
With `COC(=O)c1cc(OC)c(OC)cc1NC(=O)Cc1cccs1`, the cell number change was -7.59%. Besides, the AC50 under setting [1] was 18.4 µM [falling, partial curve, poor fit].
Consider `OCC[C@H]1C[C@H](O)[C@@H](O)[C@@]2(OCCCc3ccccc32)O1`, for which the cell number change is -36.8%. For the same molecule, the AC50 under setting [2] is 9.2 µM [falling, partial curve, poor fit]. Further, the half-maximal activity concentration (AC50) under setting [1] was 9.2 µM [falling, partial curve, poor fit].
On to `Cc1cc(-c2n[nH]c(=S)n2/N=C/c2cc([N+](=O)[O-])ccc2Cl)n[nH]1`, for which the cell number change was -23.4%. For the same molecule, the AC50 under setting [1] is 29.1 µM [falling, single point].
